Laboratory results: PubChem BioAssay AID248 (DTP/NCI, 2004)
The list shows only some results of the screen, not a fair sample: it gathers some chemical classes. Other doses and runs of a compound may be missing. T/C: endpoint of the treated group in % of that of the vehicle group. Where survival is the endpoint, this PubChem deposit counts one and a half times the control or more as active, and values a quarter to a half above the control carry no call in these data; other NCI protocols may use other cut-offs. Some T/C values are marked as having no survivor count here; that says nothing about deaths at the dose. Schedules are NCI's codes, taken here to give the interval after Q, in days (D) or hours (H), and the number of doses after X. Some doses were run more than once; their values stand side by side, smallest first.

Test system: L1210 leukemia ip in BDF1 mice, survival T/C
Test: NCI In Vivo Anticancer Drug Screen. Data for tumor model L1210 Leukemia (intraperitoneal) in B6D2F1 (BDF1) mice
Settings: T/C endpoint: mean survival time, higher T/C = longer survival
[1] = dose: 25.0 mg/kg/injection, schedule: Q04DX003 (ip), vehicle: saline
[2] = dose: 50.0 mg/kg/injection, schedule: Q04DX003 (ip), vehicle: saline
[3] = dose: 100.0 mg/kg/injection, schedule: Q01DX009 (ip), vehicle: saline

O=C(OCCN(C1CCCC1)C1CCCC1)C(O)(c1ccccc1)c1ccccc1
T/C (dose: 100.0 mg/kg/injection, schedule: Q04DX003 (ip), vehicle: saline with Tween-80): 101 % of control [survivor count not shown]
T/C (dose: 200.0 mg/kg/injection, schedule: Q04DX003 (ip), vehicle: saline with Tween-80): 101 % of control [survivor count not shown]
T/C (dose: 400.0 mg/kg/injection, schedule: Q04DX003 (ip), vehicle: saline with Tween-80): 98 % of control [survivor count not shown]

O=C(OCC1CCCCN1)C(O)(c1ccccc1)c1ccccc1 (stereo unspecified)
T/C [1]: 98 % of control [survivor count not shown]
T/C [2]: 102 % of control [survivor count not shown]
T/C [3]: 89 % of control [survivor count not shown]

Cc1ccc(CN2C3CCCC2CC(OC(=O)C(O)(c2ccccc2)c2ccccc2)C3)cc1 (stereo unspecified)
T/C (dose: 100.0 mg/kg/injection, schedule: Q01DX001 (ip), vehicle: Klucel (hydroxypropylcellulose) (HPC)): 98 % of control [survivor count not shown]
T/C (dose: 200.0 mg/kg/injection, schedule: Q01DX001 (ip), vehicle: Klucel (hydroxypropylcellulose) (HPC)): 96 % of control [survivor count not shown]

O=C(OC1CCCN2CCCCC12)C(O)(c1ccccc1)c1ccccc1 (stereo unspecified)
T/C (dose: 12.5 mg/kg/injection, schedule: Q01DX001 (ip), vehicle: Klucel (hydroxypropylcellulose) (HPC)): 105 % of control [survivor count not shown]
T/C (dose: 25.0 mg/kg/injection, schedule: Q01DX001 (ip), vehicle: Klucel (hydroxypropylcellulose) (HPC)): 101 % of control [survivor count not shown]
T/C (dose: 50.0 mg/kg/injection, schedule: Q01DX001 (ip), vehicle: Klucel (hydroxypropylcellulose) (HPC)): 103 % of control [survivor count not shown]

CN1CCC(OC(=O)C(O)(c2ccccc2)C2CCCC2)C1 (stereo unspecified)
T/C (dose: 12.5 mg/kg/injection, schedule: Q01DX009 (ip), vehicle: saline): 95 % of control [survivor count not shown]
T/C (dose: 25.0 mg/kg/injection, schedule: Q01DX009 (ip), vehicle: saline): 102 % of control [survivor count not shown]
T/C [1]: 100 % of control [survivor count not shown]
T/C (dose: 50.0 mg/kg/injection, schedule: Q01DX009 (ip), vehicle: saline): 92 % of control [survivor count not shown]
T/C [2]: 92 % of control [survivor count not shown]
T/C [3]: 103 % of control [survivor count not shown]
T/C (dose: 100.0 mg/kg/injection, schedule: Q04DX003 (ip), vehicle: saline): 102 % of control [survivor count not shown]
T/C (dose: 200.0 mg/kg/injection, schedule: Q01DX009 (ip), vehicle: saline): 95 % of control [survivor count not shown]
T/C (dose: 200.0 mg/kg/injection, schedule: Q04DX003 (ip), vehicle: saline): 100 % of control [survivor count not shown]

ClCCN1CCCC1CCl (stereo unspecified)
T/C (dose: 0.75 mg/kg/injection, schedule: Q01DX009 (ip), vehicle: saline): 105 % of control [survivor count not shown]
T/C (dose: 1.3 mg/kg/injection, schedule: Q01DX009 (ip), vehicle: saline with Tween-80): 112 % of control [survivor count not shown]
T/C (dose: 1.5 mg/kg/injection, schedule: Q01DX009 (ip), vehicle: saline): 115 % of control [survivor count not shown]
T/C (dose: 1.56 mg/kg/injection, schedule: Q04DX003 (ip), vehicle: saline): 105 % of control [survivor count not shown]
T/C (dose: 2.0 mg/kg/injection, schedule: Q01DX009 (ip), vehicle: saline with Tween-80): 129 % of control [survivor count not shown]
T/C (dose: 2.0 mg/kg/injection, schedule: Q01DX009 (ip), vehicle: saline): 128 % of control [survivor count not shown]
T/C (dose: 3.0 mg/kg/injection, schedule: Q01DX009 (ip), vehicle: saline with Tween-80): 100 % of control [survivor count not shown]
T/C (dose: 3.0 mg/kg/injection, schedule: Q01DX009 (ip), vehicle: saline): 113 [survivor count not shown] and 125 % of control [survivor count not shown]
T/C (dose: 3.13 mg/kg/injection, schedule: Q04DX003 (ip), vehicle: saline): 122 % of control [survivor count not shown]
T/C (dose: 4.5 mg/kg/injection, schedule: Q01DX009 (ip), vehicle: saline): 94 % of control [survivor count not shown]
T/C (dose: 6.25 mg/kg/injection, schedule: Q04DX003 (ip), vehicle: saline): 143 % of control [survivor count not shown]
T/C (dose: 12.5 mg/kg/injection, schedule: Q04DX003 (ip), vehicle: saline): 103 % of control [survivor count not shown]

CC(C)C(O)(C(=O)OC1CCNCC1)c1ccccc1 (stereo unspecified)
T/C (dose: 100.0 mg/kg/injection, schedule: Q01DX001 (ip), vehicle: saline): 104 % of control [survivor count not shown]
T/C (dose: 200.0 mg/kg/injection, schedule: Q01DX001 (ip), vehicle: saline): 110 % of control [survivor count not shown]

OC1(C#CCN(CCCl)CCCl)CCCCC1
T/C (dose: 2.5 mg/kg/injection, schedule: Q01DX009 (ip), vehicle: saline): 110 % of control [survivor count not shown]
T/C (dose: 5.0 mg/kg/injection, schedule: Q01DX009 (ip), vehicle: saline): 136 % of control [survivor count not shown]
